The list shows only some results of the screen, not a fair sample: it gathers tests that were run many times, whatever their T/C, doses with no T/C, and many T/C values between a quarter and a half above the control. Further doses and runs are listed elsewhere. T/C: endpoint of the treated group in % of that of the vehicle group. Some doses have a count of surviving animals in place of a T/C: the source files T/C as zero there, which appears to mark a toxic dose or a test without result, not a measured value. Some doses without a T/C left all or most animals alive at the check, yet need not have been tolerated: survival well below the control is almost never listed, so the zero probably covers shortened survival too. Survivors were counted at the toxicity check, usually on the fifth day, unless a day is given; later deaths do not show. Schedule codes are those of the source, taken here to give the interval after Q, in days (D) or hours (H), and the number of doses after X. Some doses were run more than once; their values stand side by side, smallest first. Some schedules carry Z or #; the key to these is not given. Where survival is the endpoint, this PubChem deposit counts one and a half times the control or more as active, and values a quarter to a half above the control carry no call in these data; other NCI protocols may use other cut-offs.
System: L1210 leukemia ip in BDF1 mice, survival T/C
Assay: NCI In Vivo Anticancer Drug Screen. Data for tumor model L1210 Leukemia (intraperitoneal) in B6D2F1 (BDF1) mice
Conditions: T/C endpoint: mean survival time, higher T/C = longer survival
[1] = dose: 300.0 mg/kg/injection, schedule: Q01DX001 (ip), vehicle: saline
[2] = dose: 400.0 mg/kg/injection, schedule: Q04DX003 (ip), vehicle: saline with Tween-80
[3] = dose: 100.0 mg/kg/injection, schedule: Q01DX001 (ip), vehicle: saline
[4] = dose: 200.0 mg/kg/injection, schedule: Q01DX001 (ip), vehicle: saline
[5] = dose: 400.0 mg/kg/injection, schedule: Q01DX001 (ip), vehicle: saline
[6] = dose: 100.0 mg/kg/injection, schedule: Q01DX009 (ip), vehicle: Klucel (hydroxypropylcellulose) (HPC)
[7] = dose: 200.0 mg/kg/injection, schedule: Q04DX003 (ip), vehicle: Klucel (hydroxypropylcellulose) (HPC)
[8] = dose: 400.0 mg/kg/injection, schedule: Q01DX001 (ip), vehicle: carboxymethylcellulose (CMC)
[9] = dose: 400.0 mg/kg/injection, schedule: Q04DX003 (ip), vehicle: Klucel (hydroxypropylcellulose) (HPC)

CC(C)=NNC(=O)CC#N
survivor count (dose: 400.0 mg/kg/injection, schedule: Q01DX001 (ip), vehicle: Klucel (hydroxypropylcellulose) (HPC)): 1 of 6

CCCCCCCCOP(=O)(OCCCCCCCC)c1ccccc1
survivor count (dose: 75.0 mg/kg/injection, schedule: Q01DX001 (ip), vehicle: saline): 6 of 6 | survivor count (dose: 150.0 mg/kg/injection, schedule: Q01DX001 (ip), vehicle: saline): 3 of 6 | survivor count [1]: 1 of 6

OCCN(Cc1ccccc1)Cc1ccccc1
survivor count [2]: 0 of 6

CCC1=NNC(=O)C1(Br)Br
survivor count [3]: 0 of 4 | survivor count [4]: 0 of 4 | survivor count [5]: 0 of 4

O=c1cc(Br)c(=O)c2cc(Br)cc(Br)c2[nH]1
survivor count [6]: 6 of 6

CNCC(=O)NC(CO)C(=O)NC(CO)C(=O)NC1C(C(N)=O)OC(n2ccc(N)nc2=O)C(O)C1O (stereo unspecified)
survivor count (dose: 50.0 mg/kg/injection, schedule: Q01DX005 (ip), vehicle: saline): 0 of 3 | survivor count (dose: 100.0 mg/kg/injection, schedule: Q01DX005 (ip), vehicle: saline): 0 of 3 | survivor count (dose: 200.0 mg/kg/injection, schedule: Q01DX005 (ip), vehicle: saline): 0 of 3

Cc1ccc(S(=O)(=O)NC(=S)Nc2ccccc2)cc1
survivor count [5]: 2 of 4

[Co+2].[NH-]C(CC(N)=O)C(=O)O.[NH-]C(CC(N)=O)C(=O)O (stereo unspecified)
survivor count (dose: 400.0 mg/kg/injection, schedule: Q04DX002 (ip), vehicle: saline): 0 of 3

BrCc1ccc(CBr)c(Br)c1
survivor count [6]: 0 of 6 | survivor count [7]: 6 of 6

S=c1[nH]cc2cnccn12
survivor count (dose: 400.0 mg/kg/injection, schedule: Q01DX009 (ip), vehicle: saline with Tween-80): 0 of 6

CCN(CC)CCCNc1cc(C)c(C)cc1[N+](=O)[O-]
survivor count (dose: 200.0 mg/kg/injection, schedule: Q04DX003 (ip), vehicle: saline): 2 of 6 | survivor count (dose: 400.0 mg/kg/injection, schedule: Q04DX003 (ip), vehicle: saline): 0 of 6

CC(=O)Nc1ccc(C(=O)O)cc1[N+](=O)[O-]
survivor count [8]: 6 of 6

CCC(Br)(CC)C(=O)c1ccc(OCC(=O)O)c(Cl)c1Cl
survivor count [5]: 0 of 4

O=C(CBr)c1ccncc1
survivor count (dose: 40.0 mg/kg/injection, schedule: Q01DX001 (ip), vehicle: saline): 0 of 4 | survivor count (dose: 80.0 mg/kg/injection, schedule: Q01DX001 (ip), vehicle: saline): 0 of 4 | survivor count [3]: 0 of 4 | survivor count [4]: 0 of 4 | survivor count [5]: 0 of 4

COC(=O)c1[nH]cnc1N1CC[N+](CCCl)=N1
survivor count [1]: 2 of 6

CCCCN(C(=O)C(F)(F)F)C(C)(C)C(SSSC(c1cccs1)C(C)(C)N(CCCC)C(=O)C(F)(F)F)c1cccs1 (stereo unspecified)
survivor count (dose: 400.0 mg/kg/injection, schedule: Q01DX009 (ip), vehicle: saline sonified): 5 of 6

CC(=[N-])CC(C)=O.CC(=[N-])CC(C)=O.[Co+2]
survivor count (dose: 50.0 mg/kg/injection, schedule: Q01DX001 (ip), vehicle: saline): 1 of 6 | survivor count [3]: 0 of 6 | survivor count [4]: 0 of 6 | survivor count [5]: 0 of 6

CN1CCCC1c1cccnc1 (stereo unspecified)
survivor count (dose: 0.5 mg/kg/injection, schedule: Q01DX009 (ip), vehicle: saline): 6 of 6 | survivor count (dose: 2.0 mg/kg/injection, schedule: Q01DX009 (ip), vehicle: saline): 1 of 6 and 6 of 6 | survivor count (dose: 4.0 mg/kg/injection, schedule: Q01DX009 (ip), vehicle: saline): 0 of 6 and 1 of 6 | survivor count (dose: 4.0 mg/kg/injection, schedule: Q01DX Z (ip), vehicle: saline): 6 of 6

CC(=O)/C(C)=C/C=O
survivor count (dose: 25.0 mg/kg/injection, schedule: Q01DX009 (ip), vehicle: water): 2 of 6 | survivor count (dose: 25.0 mg/kg/injection, schedule: Q04DX003 (ip), vehicle: water): 0 of 6 | survivor count (dose: 50.0 mg/kg/injection, schedule: Q04DX003 (ip), vehicle: water): 2 of 6 | survivor count (dose: 100.0 mg/kg/injection, schedule: Q04DX003 (ip), vehicle: water): 0 of 6 | survivor count (dose: 200.0 mg/kg/injection, schedule: Q04DX003 (ip), vehicle: water): 0 of 6 | survivor count (dose: 400.0 mg/kg/injection, schedule: Q04DX003 (ip), vehicle: water): 0 of 6

COc1ccc(Nc2nc(N)nc(N)c2N)cc1
survivor count (dose: 200.0 mg/kg/injection, schedule: Q01DX Z (ip), vehicle: saline): 0 of 6

C/C=C/CC1=C(O)c2ccccc2C(=O)C1=O
survivor count (dose: 200.0 mg/kg/injection, schedule: Q01DX001 (ip), vehicle: water): 0 of 6 | survivor count (dose: 400.0 mg/kg/injection, schedule: Q01DX001 (ip), vehicle: water): 0 of 6

O=C(O)C1C(c2ccccc2)=C(c2ccccc2)c2ccccc21 (stereo unspecified)
survivor count (dose: 200.0 mg/kg/injection, schedule: Q04DX003 (ip), vehicle: saline with Tween-80): 3 of 6 | survivor count [2]: 0 of 6

CC(=O)OC(=O)c1ccc2c(c1)C(=O)c1ccccc1C2=O
survivor count (dose: 100.0 mg/kg/injection, schedule: Q01DX001 (ip), vehicle: Klucel (hydroxypropylcellulose) (HPC)): 2 of 6 | survivor count (dose: 200.0 mg/kg/injection, schedule: Q01DX001 (ip), vehicle: Klucel (hydroxypropylcellulose) (HPC)): 3 of 6 | survivor count [7]: 1 of 6 | survivor count [9]: 3 of 6

CC(C)(C)C1CCC([N+](=O)[O-])CC1 (stereo unspecified)
survivor count (dose: 150.0 mg/kg/injection, schedule: Q01DX001 (ip), vehicle: other): 3 of 6 | survivor count (dose: 300.0 mg/kg/injection, schedule: Q01DX001 (ip), vehicle: other): 0 of 6

O=C(Nc1ccc(C2=NCCN2)cc1)Nc1cccc(NC(=O)Nc2ccc(C3=NCCN3)cc2)c1
T/C (dose: 3.75 mg/kg/injection, schedule: Q#A X Z (ip), vehicle: carboxymethylcellulose (CMC)): 125 % of control | T/C (dose: 15.0 mg/kg/injection, schedule: Q01DX Z (ip), vehicle: carboxymethylcellulose (CMC)): 147 % of control | T/C (dose: 45.0 mg/kg/injection, schedule: Q03DX Z (ip), vehicle: carboxymethylcellulose (CMC)): 147 % of control | T/C (dose: 52.5 mg/kg/injection, schedule: Q07DX Z (ip), vehicle: carboxymethylcellulose (CMC)): 125 % of control | T/C (dose: 100.0 mg/kg/injection, schedule: Q01DX001 (ip), vehicle: carboxymethylcellulose (CMC)): 130 % of control | T/C (dose: 105.0 mg/kg/injection, schedule: Q07DX Z (ip), vehicle: carboxymethylcellulose (CMC)): 145 % of control | T/C (dose: 200.0 mg/kg/injection, schedule: Q01DX001 (ip), vehicle: carboxymethylcellulose (CMC)): 145 % of control

COc1cc2c(cc1I)-c1c(cc(OC)c(OC)c1OC)CC[C@@H]2NC(C)=O
T/C (dose: 60.0 mg/kg/injection, schedule: Q01DX Z (ip), vehicle: carboxymethylcellulose (CMC)): 147 % of control | survivor count (dose: 135.0 mg/kg/injection, schedule: Q01DX Z (ip), vehicle: carboxymethylcellulose (CMC)): 2 of 7 | survivor count (dose: 165.0 mg/kg/injection, schedule: Q01DX Z (ip), vehicle: carboxymethylcellulose (CMC)): 1 of 6 | survivor count (dose: 200.0 mg/kg/injection, schedule: Q01DX Z (ip), vehicle: carboxymethylcellulose (CMC)): 3 of 7 | survivor count [9]: 6 of 6

CN(C)c1ncnc2c1cnn2C
survivor count [8]: 2 of 6

Reference: PubChem BioAssay AID248 (DTP/NCI, 2004)
